Test results published in PMC9700600.
No constants are given. Whether binding was seen depends on the method and setting. In cells and extracts the contact can be indirect. Some results given as binding are weak or reduced against the parent protein; the word gives no strength.

By UniProt entry, the sequences of proteins in these tests, tags left out.
UniProt O14980: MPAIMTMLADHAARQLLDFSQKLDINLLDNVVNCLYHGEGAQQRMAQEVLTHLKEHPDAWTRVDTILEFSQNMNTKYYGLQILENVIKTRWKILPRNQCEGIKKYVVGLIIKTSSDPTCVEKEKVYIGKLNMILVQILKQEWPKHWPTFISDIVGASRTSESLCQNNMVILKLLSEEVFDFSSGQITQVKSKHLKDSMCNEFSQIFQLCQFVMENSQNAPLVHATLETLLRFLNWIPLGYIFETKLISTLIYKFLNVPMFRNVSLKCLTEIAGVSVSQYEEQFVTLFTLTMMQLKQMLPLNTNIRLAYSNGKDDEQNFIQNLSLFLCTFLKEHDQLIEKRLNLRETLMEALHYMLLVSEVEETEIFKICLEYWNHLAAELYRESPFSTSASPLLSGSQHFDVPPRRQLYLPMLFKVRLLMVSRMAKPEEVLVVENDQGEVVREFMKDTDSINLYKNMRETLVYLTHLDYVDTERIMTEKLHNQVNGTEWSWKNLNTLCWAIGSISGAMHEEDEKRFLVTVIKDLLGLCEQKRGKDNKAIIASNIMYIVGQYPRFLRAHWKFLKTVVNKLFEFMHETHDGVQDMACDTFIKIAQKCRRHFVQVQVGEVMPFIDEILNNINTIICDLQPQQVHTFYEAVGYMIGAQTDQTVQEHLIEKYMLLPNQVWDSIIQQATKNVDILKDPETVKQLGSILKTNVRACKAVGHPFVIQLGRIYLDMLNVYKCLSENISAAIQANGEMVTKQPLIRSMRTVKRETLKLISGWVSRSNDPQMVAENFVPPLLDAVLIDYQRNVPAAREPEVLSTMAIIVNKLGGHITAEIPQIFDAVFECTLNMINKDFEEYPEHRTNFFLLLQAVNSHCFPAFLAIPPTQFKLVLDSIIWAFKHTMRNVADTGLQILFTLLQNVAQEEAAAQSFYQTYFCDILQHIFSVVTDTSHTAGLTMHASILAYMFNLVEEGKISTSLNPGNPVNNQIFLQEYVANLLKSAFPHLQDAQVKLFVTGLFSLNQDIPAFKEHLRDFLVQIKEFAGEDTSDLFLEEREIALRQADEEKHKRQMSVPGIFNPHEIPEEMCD
UniProt Q6P5F9: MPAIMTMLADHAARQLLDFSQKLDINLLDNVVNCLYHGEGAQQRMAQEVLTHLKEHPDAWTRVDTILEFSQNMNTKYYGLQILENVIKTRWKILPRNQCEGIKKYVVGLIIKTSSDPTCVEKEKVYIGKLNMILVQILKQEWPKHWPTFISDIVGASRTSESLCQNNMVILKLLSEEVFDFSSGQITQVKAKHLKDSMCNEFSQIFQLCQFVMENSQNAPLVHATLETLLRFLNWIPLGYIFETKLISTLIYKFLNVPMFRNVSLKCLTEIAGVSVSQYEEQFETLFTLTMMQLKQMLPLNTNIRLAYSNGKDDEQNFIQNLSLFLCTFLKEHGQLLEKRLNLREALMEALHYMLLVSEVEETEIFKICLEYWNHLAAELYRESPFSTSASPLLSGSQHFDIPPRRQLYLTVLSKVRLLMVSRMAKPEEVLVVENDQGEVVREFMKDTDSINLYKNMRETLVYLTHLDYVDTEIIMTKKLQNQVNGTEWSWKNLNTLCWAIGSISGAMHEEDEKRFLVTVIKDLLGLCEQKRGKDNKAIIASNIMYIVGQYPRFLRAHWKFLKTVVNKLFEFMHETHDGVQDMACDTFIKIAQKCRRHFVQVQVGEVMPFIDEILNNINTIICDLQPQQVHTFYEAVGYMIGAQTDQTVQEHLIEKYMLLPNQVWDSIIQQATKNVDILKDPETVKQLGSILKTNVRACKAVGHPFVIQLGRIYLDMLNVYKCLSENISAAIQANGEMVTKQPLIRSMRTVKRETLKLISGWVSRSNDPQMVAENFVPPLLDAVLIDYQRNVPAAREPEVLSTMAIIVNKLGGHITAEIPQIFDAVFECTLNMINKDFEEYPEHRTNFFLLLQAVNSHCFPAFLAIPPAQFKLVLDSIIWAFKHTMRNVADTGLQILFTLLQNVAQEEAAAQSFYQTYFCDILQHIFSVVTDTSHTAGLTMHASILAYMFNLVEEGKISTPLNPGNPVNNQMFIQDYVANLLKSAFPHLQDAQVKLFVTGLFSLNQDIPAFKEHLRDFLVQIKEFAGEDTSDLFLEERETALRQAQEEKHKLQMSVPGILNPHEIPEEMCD
UniProt P30153: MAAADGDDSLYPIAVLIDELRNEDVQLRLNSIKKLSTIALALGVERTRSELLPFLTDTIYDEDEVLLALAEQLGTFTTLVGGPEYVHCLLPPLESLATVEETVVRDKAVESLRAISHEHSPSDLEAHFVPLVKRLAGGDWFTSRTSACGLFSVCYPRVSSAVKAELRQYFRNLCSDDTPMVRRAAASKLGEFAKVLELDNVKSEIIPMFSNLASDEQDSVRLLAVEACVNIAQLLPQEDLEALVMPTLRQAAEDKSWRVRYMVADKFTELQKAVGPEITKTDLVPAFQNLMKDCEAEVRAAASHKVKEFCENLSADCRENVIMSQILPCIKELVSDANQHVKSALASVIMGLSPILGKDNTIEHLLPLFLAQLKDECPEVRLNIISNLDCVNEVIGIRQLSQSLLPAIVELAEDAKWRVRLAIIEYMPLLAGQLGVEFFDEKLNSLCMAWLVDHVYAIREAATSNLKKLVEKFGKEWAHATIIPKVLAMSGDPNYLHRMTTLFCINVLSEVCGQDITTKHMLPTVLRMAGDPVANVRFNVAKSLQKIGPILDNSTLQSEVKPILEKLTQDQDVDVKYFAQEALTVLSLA

What was measured:
[1] = biological target: Flag-CRM1 (chromosome region maintenance 1) (UniProt O14980); assay: co-IP; HEK293 cells transfected with Flag-CRM1, mRuby2-PR65 and RanQ69L plasmids; whole-cell immunoprecipitation at 72 h with Flag-beads; western blot with anti-PR65 and anti-Flag
[2] = biological target: CRM1 in WT cells (endogenous) (mouse (endogenous in MEFs)) (UniProt Q6P5F9); assay: condition: only cells pretreated with LMB (1 ng/ml); proximity ligation; PR65 and CRM1 in WT cells pretreated with leptomycin B (LMB, 1 ng/ml)
[3] = biological target: CRM1 in WT cells (endogenous) (mouse (endogenous in MEFs)) (UniProt Q6P5F9); assay: proximity ligation; PR65 and CRM1 in WT cells, untreated or irradiated with 10 Gy

| Substance | binding [1] | binding [2] | binding [3] |
| --- | --- | --- | --- |
| mRuby2-PR65 (from UniProt P30153 1-589) | binds | – | – |
| PR65 in WT cells (Flag-PR65 WT in PR65 KO MEFs) (from UniProt P30153 1-589) | – | no binding | binds |
